Literature values as cited in patent US12194147B2, “Hydrophilic/hydrophobic pharmaceutical composition and method of its production and use” (Pathelen Health Care AG, priority 2018, dated 2025).
Some of these results come from one statement about several compounds together.

Settings: enzymes immobilized on sorbent SUMS-1; first phase of wound healing

In the case of hyaluronidase, the duration of action is given as “less than 16 hours”.
